# Reference: PubChem BioAssay AID1671190 (National Center for Advancing Translational Sciences (NCATS), 2021)
# Protein sequences, listed by entry. Tags and fused reporters are not part of them. Lines headed by an entry give the natural chain unless they say otherwise; changes in a name come on top.
# UniProt P18054: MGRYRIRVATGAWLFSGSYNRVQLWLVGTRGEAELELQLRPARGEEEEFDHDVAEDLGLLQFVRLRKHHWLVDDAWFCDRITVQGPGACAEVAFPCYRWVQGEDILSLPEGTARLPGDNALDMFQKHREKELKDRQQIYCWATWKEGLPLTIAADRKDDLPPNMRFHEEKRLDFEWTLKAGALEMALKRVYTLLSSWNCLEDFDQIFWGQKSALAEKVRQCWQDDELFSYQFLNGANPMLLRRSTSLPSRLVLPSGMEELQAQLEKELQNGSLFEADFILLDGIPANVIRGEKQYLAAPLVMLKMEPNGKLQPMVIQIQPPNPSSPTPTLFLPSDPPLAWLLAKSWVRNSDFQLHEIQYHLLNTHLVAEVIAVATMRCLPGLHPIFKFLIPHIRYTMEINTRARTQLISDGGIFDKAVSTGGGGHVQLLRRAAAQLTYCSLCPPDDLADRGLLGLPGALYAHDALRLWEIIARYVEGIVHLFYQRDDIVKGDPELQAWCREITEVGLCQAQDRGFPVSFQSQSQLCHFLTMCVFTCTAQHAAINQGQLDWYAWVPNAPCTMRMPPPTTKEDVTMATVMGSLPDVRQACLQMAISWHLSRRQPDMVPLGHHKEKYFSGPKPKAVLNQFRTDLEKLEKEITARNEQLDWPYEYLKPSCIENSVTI
# Hit rate of the full screen: of about 580,000 compounds, about 6,100 (1.1%) were called active. This list was built around the results that the source calls inconclusive (neither active nor inactive); the mix of calls is not that of the screen. Calls follow the shape of the dose curve; as a rule, active = well fitted inhibition curve with a large enough effect; inconclusive = small, poorly fitted or top-dose-only effect, or another doubt; inactive = no such curve, though single readings can be large or run the other way. Where the call is inconclusive, the potency comes from a doubtful curve fit.
# Target: Polyunsaturated fatty acid lipoxygenase ALOX12 (Homo sapiens) (UniProt P18054)
# Assay: Primary qHTS assay for inhibitors of human arachidonate 12S-lipoxygenase (ALOX12): Round 2
# Settings: purified 12hLO, xylenol orange hydroperoxide absorbance; series mostly up to 108 µM
# Procedure, shortened: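 Hydroperoxide product was detected by ferrous iron/xylenol orange as the 573 to 405 nm absorbance ratio. Arachidonic acid at 40 uM (final) was turned over for 30 min at room temperature by 150 nM human 12hLO, pH 7.0 Hepes buffer, after 15 min compound preincubation.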
# Potency is read from the fitted curve at half-maximal effect.
row,Structure (SMILES),Potency
1,COC(=O)c1ccc(COC(=O)CC23CC4CC(CC(O)(C4)C2)C3)cc1,"inconclusive: 39.8 µM [inhibitor, partial curve, poor fit]"
2,S=C(NCc1ccccc1)Nc1ccc(Cl)c(Cl)c1,"inconclusive: 39.8 µM [inhibitor, partial curve, poor fit]"
3,COC(=O)c1ccn(CC(=O)NC2CCCCC2)n1,inactive
4,Cc1cccc(NC(=O)/C(C#N)=C\c2ccc(C(=O)O)cc2)c1,inactive
5,CCONC(=O)C(C)Sc1ccccc1 (stereo not given),"inconclusive: 112 µM [inhibitor, partial curve, poor fit]"
6,O=C(NCc1ccc(Cl)cc1)C1=Cc2cc(Cl)ccc2OC1,"inconclusive: 56.2 µM [inhibitor, partial curve, poor fit]"
7,Cc1ccc(CCNC(=O)CN2C(=O)COc3ccc(S(=O)(=O)N4CCC(C)CC4)cc32)cc1,"inconclusive: 35.5 µM [inhibitor, single point]"
8,O=C1c2ccccc2C(=O)C12OC2c1cccc2ccccc12 (stereo not given),"inconclusive: 39.8 µM [inhibitor, partial curve, poor fit]"
9,CCOC(=O)c1oc2ccccc2c1COC(=O)CNC(=O)c1cccc(OC)c1,"inconclusive: 56.2 µM [inhibitor, partial curve, poor fit]"
10,CCOC(=O)NC(CNC(=O)C(C)OCc1ccccc1)CC(C)C (stereo not given),"inconclusive: 112 µM [inhibitor, single point]"
11,Cc1ccc(NC(C)c2cc(Cl)ccc2O)cc1 (stereo not given),inactive
12,CCn1cc(C(=O)NCCCN(CC(C)C)CC(C)C)c(=O)c2cc(S(=O)(=O)N3CCc4ccccc4C3)ccc21,"inconclusive: 89.1 µM [inhibitor, partial curve, poor fit]"
13,Cc1ccc(-c2nnc(SCC(=O)NCCC(C)C)nc2-c2ccc(C)cc2)cc1,"inconclusive: 50.1 µM [inhibitor, partial curve, poor fit]"
14,COc1cccc(C2=NS(=O)(=O)N(C)C(C(=O)Nc3cccc(O)c3)=C2)c1,"inconclusive: 79.4 µM [inhibitor, partial curve, poor fit]"
15,COC(=O)c1ccn(Cc2cccc(Cl)c2)n1,inactive
16,Cc1cccc(Cc2c(C)nc3c(C(=O)NCc4ccco4)cnn3c2C)c1,"inconclusive: 50.1 µM [inhibitor, partial curve, poor fit]"
17,Cc1cc(NC(=O)C2CCCN(S(=O)(=O)c3ccc(Br)s3)C2)ccc1Br (stereo not given),"inconclusive: 8.91 µM [inhibitor, partial curve, poor fit]"
18,COc1ccc(-c2nnc3ccc(SCC(=O)N4CCCC4)nn23)cc1,"inconclusive: 44.7 µM [inhibitor, partial curve, poor fit]"
19,O=C(CSc1nc2nc[nH]c2c(=O)[nH]1)c1ccc(Br)cc1,"inconclusive: 31.6 µM [inhibitor, partial curve, poor fit]"
20,Cc1ccc(S(=O)(=O)N2CC3(O)CN(C(=O)OC(C)C)N(C(=O)OC(C)C)CC3(OC(=O)NC3CC3)C2)cc1 (stereo not given),inactive

row,Structure (SMILES),Potency
1,Cc1cc(Nc2ccc(O)cc2)n2c(nc3ccccc32)c1C#N,"inconclusive: 112 µM [inhibitor, single point]"
2,CCC(C)NC(=O)C(NC(=O)c1ccccc1Cl)C1CCN(C(=O)CCc2ccccc2)CC1 (stereo not given),inactive
3,CCOC(=O)c1oc2ccccc2c1COC(=O)CNC(=O)c1cc(OC)c(OC)c(OC)c1,"inconclusive: 89.1 µM [inhibitor, partial curve, poor fit]"
4,COc1cc(/C=C2/CCCC(C(=O)C(F)(F)F)=C2O)ccc1O,inactive
5,COC(=O)c1cc(N/C(N)=N/c2nc(C)cc(C)n2)cc(C(=O)OC)c1,"inconclusive: 50.1 µM [inhibitor, partial curve, poor fit]"
6,CCOC(=O)C1=C(O)C(=O)N(c2ccc(S(N)(=O)=O)cc2)C1c1ccc([N+](=O)[O-])cc1 (stereo not given),"inconclusive: 35.5 µM [inhibitor, partial curve, poor fit]"
7,COC(=O)[C@@]1(Cc2ccc(F)cc2)[C@H]2c3cc(C(=O)N(C)C)n(Cc4ccc(OC)c(OC)c4)c3C[C@H]2CN1C(=O)c1ccccc1,inactive
8,COc1ccc(OC)c(/C=N/n2c(-c3n[nH]c4c3CCC4)n[nH]c2=S)c1,"inconclusive: 35.5 µM [inhibitor, single point]"
9,CCc1ccc(NC(=O)N(Cc2c[nH]c3ccccc23)C2CCCCCC2)cc1,inactive
10,CN(C)c1ccc(NC(=O)Cn2cccc2-c2nc(-c3ccccc3)no2)cc1,"inconclusive: 10 µM [inhibitor, partial curve, poor fit]"
11,COCc1[nH][nH]c(=O)c1C=Nc1ccccc1,"inconclusive: 11.2 µM [inhibitor, full curve, poor fit]"
12,CCC(C)NCCOCCOc1ccc(C)cc1OC (stereo not given),inactive
13,N=C1SC(=Cc2ccc(-c3ccc4c(c3)C(=O)NC4=O)o2)C(=O)N1c1ccc(Br)cc1,"inconclusive: 24.3 µM [inhibitor, partial curve, poor fit]"
14,COc1cc(C(=O)N/N=C/c2coc3ccc(Cl)cc3c2=O)ccc1O,"inconclusive: 50.1 µM [inhibitor, partial curve, poor fit]"
15,CCN(CC)c1nc2ccccc2nc1C(C#N)C(=O)NCCCOC (stereo not given),"inconclusive: 158 µM [inhibitor, single point]"
16,Cc1onc(-c2ccccc2Cl)c1C(=O)Nc1nc2ccc(S(C)(=O)=O)cc2s1,inactive
17,Cc1cc2nn(-c3ccc(F)cc3)nc2cc1NC(=O)c1cc(Cl)ccc1Cl,"inconclusive: 112 µM [inhibitor, partial curve, poor fit]"
18,COc1ccc(NC(=O)COC(=O)c2nn(C)c(=O)c3ccccc23)cc1Cl,"inconclusive: 56.2 µM [inhibitor, single point]"
19,Nn1c(SCc2ccccc2)nc2c(cnn2-c2ccccc2)c1=O,inactive
20,CCOC(=O)c1c(C)[nH]c(=S)c(C#N)c1-c1ccc(Cl)cc1,"inconclusive: 44.7 µM [inhibitor, partial curve, poor fit]"

# A different layout for some results above:
row | Structure (SMILES) | Potency
18 | COc1ccc(NC(=O)COC(=O)c2nn(C)c(=O)c3ccccc23)cc1Cl | inconclusive: 56.2 µM [inhibitor, single point]
19 | Nn1c(SCc2ccccc2)nc2c(cnn2-c2ccccc2)c1=O | inactive
20 | CCOC(=O)c1c(C)[nH]c(=S)c(C#N)c1-c1ccc(Cl)cc1 | inconclusive: 44.7 µM [inhibitor, partial curve, poor fit]
